Assay results from article PMC9832878.

Key:
[1] = molecular target: T1, SlGASA1 fused to the GAL4 DNA-binding domain (tomato (Solanum lycopersicum)) (UniProt P27057); test: two-hybrid; SlGASA1 on the GAL4 DNA-binding domain (pGBKT7) as bait, ripening regulators on the GAL4 activation domain (pGADT7) as preys; yeast AH109; growth on SD-Leu-Trp-His-Ade
T1 sequence: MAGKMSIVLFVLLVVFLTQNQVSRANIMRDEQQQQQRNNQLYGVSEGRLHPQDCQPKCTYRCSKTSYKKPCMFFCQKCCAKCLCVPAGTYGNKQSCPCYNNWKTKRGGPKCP

[2] = molecular target: FUL1-FLAG (tomato (Solanum lycopersicum)); test: co-IP; co-expression in N. benthamiana leaves by Agrobacterium infiltration; total proteins incubated with anti-FLAG M2 magnetic beads 12-16 h at 4°C; immunoblot with anti-HA and anti-FLAG
[3] = molecular target: GST-FUL1 (tomato (Solanum lycopersicum)); test: DNA pull-down; purified SlGASA1-HIS incubated overnight with 1.0 μg biotin-labeled ACS2 or ACO1 promoter probe and GST or GST-FUL1 in HKMG buffer (100 mM KCl, 10 mM HEPES, 5 mM MgCl2, 1 mM DTT, 10% glycerol, 0.5% NP-40, pH 7.9); streptavidin-agarose beads; immunoblot with anti-GST and anti-HIS; both purified

Molecule: RIPENING INHIBITOR fused to the GAL4 activation domain (tomato (Solanum lycopersicum))
- binding [1]: no binding

Molecule: NON-RIPENING fused to the GAL4 activation domain (tomato (Solanum lycopersicum))
- binding [1]: no binding

Molecule: APETALA2a fused to the GAL4 activation domain (tomato (Solanum lycopersicum))
- binding [1]: no binding

Molecule: FRUITFULL1 fused to the GAL4 activation domain (tomato (Solanum lycopersicum))
- binding [1]: binds

B1: SlGASA1-HA (protein, UniProt P27057 26-112)
chain: NIMRDEQQQQQRNNQLYGVSEGRLHPQDCQPKCTYRCSKTSYKKPCMFFCQKCCAKCLCVPAGTYGNKQSCPCYNNWKTKRGGPKCP
- binding [2]: binds

B2: SlGASA1-HIS (protein, UniProt P27057 26-112)
chain: NIMRDEQQQQQRNNQLYGVSEGRLHPQDCQPKCTYRCSKTSYKKPCMFFCQKCCAKCLCVPAGTYGNKQSCPCYNNWKTKRGGPKCP
- binding [3]: binds

These are yes or no findings as the source states them, for the method shown. A result given as binding can be weak or reduced; the word gives no strength. Where a sequence is shown, tags or fusion partners need not be part of it. For part of these data: Binding seen in cells or lysates may run through a third protein.
